This assay is described as follows: IkB Signaling. The settings on record: ABC-DLBCL IkBa-CBG/CBR dual luciferase ratio (green luciferase fused to IkBa over red control in OCI-Ly3 lymphoma cells), 4 h. The method, boiled down: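 Luminescence ratio of IκBα-fused green versus native red beetle luciferase in OCI-Ly3 cells, 4 h post-doxycycline with compound; red signal alone, scaled from basal (0%) to zero light (-100%), flagged nonspecific or cytotoxic effects.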
Where [1] appears, read: measured here: control luc red channel unless noted.

Each structure is given as a SMILES string. This is one part of the list. Shown are side measurements of this screen, not its main read-out; they come without a call. The list favours compounds with an active or inconclusive main result. The note in brackets gives the kind of curve behind each potency; many fits are weak.

In the case of `Cc1cc(C)cc(OCC(=O)Nc2cccc3cccnc23)c1`, under setting [1], the AC50 was 39.8 µM [falling, partial curve].

Regarding `CCCc1cnc2c(c1SCC(=O)NCc1ccc(C)cc1)c(=O)n(C)c(=O)n2C`, the AC50 under setting [1] was 20 µM [falling, partial curve, poor fit].

For the molecule `CCOC(=O)c1ccc(N2C(=O)c3n[nH]c(-c4ccco4)c3C2c2ccc(C(=O)OC)cc2)cc1` (stereo unspecified), under setting [1], the concentration at half-maximal activity (AC50) was 25.1 µM [falling, single point].

On to `COc1ccccc1CCNC(=O)Cc1c(C)c2cc(Cl)c(O)cc2oc1=O`, for which the AC50 under setting [1] was 15.8 µM [falling, partial curve].

For `CCCCn1c(NC(=O)c2ccccc2)nc2ccccc21`, the AC50 under setting [1] is 12.6 µM [rising, partial curve] [measured here: IkB-luc green channel].

For `CCCCOc1ccccc1C1CC(=O)Nc2ccc3ccccc3c21` (stereo unspecified), the concentration at half-maximal activity (AC50) under setting [1] was 39.8 µM [falling, single point].

For the molecule `CCOc1ccc(CNC(=O)c2oc3c(c2C)-c2nn(Cc4cccc(Cl)c4)cc2CC3)cc1`, the half-maximal activity concentration (AC50) under setting [1] was 12.6 µM [falling, partial curve].

Turning to `O=C(Nc1ccc2c(c1)oc1ccccc12)c1ccc2c(c1)OCO2`, under setting [1], the AC50 was 3.16 µM [falling, full curve].

Consider `COc1ccc(C)c2sc(NC(=O)c3ccc(S(=O)(=O)N(C)C)cc3)nc12`, for which, under setting [1], the AC50 was 0.0251 µM [falling, full curve].

For the molecule `CCc1ccc(NC(=O)CN2C(=O)C(c3ccc(C)cc3)=NC23CCCCC3)cc1`, the AC50 under setting [1] is 10 µM [falling, single point].

Regarding `CCCCOc1ccc(C2=NC(c3ccncc3)=Nc3ccc(OCC)cc3N2)cc1`, the AC50 under setting [1] was 20 µM [falling, partial curve].

On to `COc1ccc2sc(N(Cc3cccnc3)C(=O)C3CCCCC3)nc2c1`, for which the AC50 under setting [1] is 39.8 µM [falling, single point].

As for `CCOC(=O)c1cccc(NC(=O)c2cc3ccccn3n2)c1`, the AC50 under setting [1] was 25.1 µM [falling, partial curve].

As to `CC(C)OCCCn1c(SCC(=O)c2ccccc2)nc2c(sc3ccccc32)c1=O`, the half-maximal activity concentration (AC50) under setting [1] is 3.16 µM [rising, partial curve, poor fit].

Turning to `Cc1cc(C)n2nc(CNS(=O)(=O)c3ccc(C)c(C)c3)nc2n1`, the AC50 under setting [1] is 25.1 µM [falling, single point].

Take `CCOC(=O)CSc1nnc(CSc2nc(N)c3c(C)c(C)sc3n2)n1-c1ccccc1`: the half-maximal activity concentration (AC50) under setting [1] was 25.1 µM [falling, partial curve].

Regarding `O=C(C1CCN(S(=O)(=O)c2cccc3nonc23)CC1)N1CCN(c2cccc(Cl)c2)CC1`, under setting [1], the AC50 was 15.8 µM [falling, partial curve].

With `COc1ccc(NC(=O)CSc2nc3nc(C)c(Cc4ccccc4)c(C)n3n2)cc1OC`, the AC50 under setting [1] was 1 µM [falling, partial curve, poor fit].

For `COc1ccccc1N1CCN(C(=O)CSc2nnc(-c3ccoc3C)o2)CC1`, the AC50 under setting [1] was 39.8 µM [falling, single point].

As for `Cc1ccc(C)c(N2CCN(C(=O)c3cc4c(=O)n(Cc5ccccc5)ccc4nc3C)CC2)c1`, under setting [1], the AC50 is 25.1 µM [falling, single point].

For the molecule `Cc1ccc2c(c1)N(C(=O)N1CCC(C(=O)NCCc3ccc(Cl)cc3)CC1)CC(C)O2` (stereo unspecified), the AC50 under setting [1] was 39.8 µM [falling, single point].

As for `Cc1cccc(OCCCC(=O)Nc2nccs2)c1`, the AC50 under setting [1] is 25.1 µM [falling, single point].

In the case of `Cc1cc(F)ccc1S(=O)(=O)Nc1ccccc1C(=O)Nc1ncn[nH]1`, under setting [1], the AC50 is 25.1 µM [falling, partial curve].

Turning to `Cc1cccc(NS(=O)(=O)c2ccc3[nH]c4c(c3c2)CCCCCC4)c1`, the AC50 under setting [1] was 25.1 µM [falling, partial curve].

Take `CCOc1cccc2c1N[C@@H](c1ccc(C(=O)O)cc1)[C@H]1CC=C[C@@H]21`: under setting [1], the AC50 is 39.8 µM [falling, single point].

With `Cc1ccc(-n2nc(C)c3c(C)c(CCC(=O)NCc4ccccc4Cl)c(C)nc32)cc1C`, the AC50 under setting [1] was 1.58 µM [falling, full curve, poor fit].

For `Cc1cccc(-c2nc(CCNC(=O)Cc3ccccc3)cs2)c1`, the half-maximal activity concentration (AC50) under setting [1] was 0.1 µM [rising, full curve].

For `O=C(COc1ccc(Cl)cc1)Nc1ccc2nc(SCC(=O)N3CCCC3)sc2c1`, under setting [1], the AC50 was 2 µM [falling, partial curve].

In the case of `C/C=C(\CS(=O)(=O)c1ccccc1)S(=O)(=O)c1ccccc1`, under setting [1], the half-maximal activity concentration (AC50) is 7.94 µM [falling, partial curve].

Regarding `O=S(=O)(Nc1ccc2c(c1)oc1ccccc12)N1CCCC1`, the AC50 under setting [1] was 20 µM [falling, single point].

Regarding `CCOC(=O)c1c(-c2ccccc2)oc2ccc(N(C(C)=O)S(=O)(=O)c3ccc(CC)cc3)cc12`, under setting [1], the half-maximal activity concentration (AC50) is 5.01 µM [falling, full curve].

On to `CCOc1ccccc1N(C(=O)c1snc(C(N)=O)c1N)C(C(=O)NC1CCCC1)c1ccco1` (stereo unspecified), for which the AC50 under setting [1] is 39.8 µM [falling, single point].

For the molecule `COc1ccccc1Nc1nc(N)nc(CSCCO)n1`, the AC50 reads like this: (measured here: IkB-luc green channel) 25.1 µM [rising, single point]; (measured here: control luc red channel) 20 µM [falling, partial curve].

Turning to `O=C(COc1ccccc1-c1nc(-c2ccccc2)no1)Nc1cccc([N+](=O)[O-])c1`, under setting [1], the AC50 is 25.1 µM [falling, partial curve].

On to `Cc1ccc(CCNC(=O)c2cc3c(s2)-c2c(C)cccc2OC3)cc1`, for which the concentration at half-maximal activity (AC50) under setting [1] is 15.8 µM [falling, partial curve].

Regarding `CCOc1ccc(C2CC(c3c(O)n(C4CCCCC4)c(=O)[nH]c3=O)=Nc3ccccc3S2)cc1` (stereo unspecified), the AC50 under setting [1] was 25.1 µM [falling, single point].

Consider `O=C(Nc1sc2c(c1C(=O)NCc1cccnc1)CCCC2)c1cc(=O)c2ccccc2o1`, for which the half-maximal activity concentration (AC50) under setting [1] was 6.31 µM [falling, partial curve].

For `Cc1ccc(NS(=O)(=O)c2ccc(-n3cccn3)cc2)cc1Cl`, the AC50 under setting [1] was 7.94 µM [falling, partial curve].

With `O=C(Cc1ccc(F)cc1)NCc1ccc2c(c1)CCN2C(=O)c1ccc(F)cc1`, the AC50 under setting [1] was 31.6 µM [falling, single point].

As to `COc1cccc(-n2c(SCC(=O)Nc3c(C)cc(C)cc3C)nc3c([nH]c4ccccc43)c2=O)c1`, the AC50 under setting [1] was 0.1 µM [falling, full curve, poor fit].

These data come from PubChem BioAssay AID445 (National Center for Advancing Translational Sciences (NCATS), 2006).
